Among the data in paper PMC4452847 are binding values, retold here.

Amino acid sequences for entries named in this document (tags omitted). Residues count along the entry.
UniProt Q99K10, residues 46-843: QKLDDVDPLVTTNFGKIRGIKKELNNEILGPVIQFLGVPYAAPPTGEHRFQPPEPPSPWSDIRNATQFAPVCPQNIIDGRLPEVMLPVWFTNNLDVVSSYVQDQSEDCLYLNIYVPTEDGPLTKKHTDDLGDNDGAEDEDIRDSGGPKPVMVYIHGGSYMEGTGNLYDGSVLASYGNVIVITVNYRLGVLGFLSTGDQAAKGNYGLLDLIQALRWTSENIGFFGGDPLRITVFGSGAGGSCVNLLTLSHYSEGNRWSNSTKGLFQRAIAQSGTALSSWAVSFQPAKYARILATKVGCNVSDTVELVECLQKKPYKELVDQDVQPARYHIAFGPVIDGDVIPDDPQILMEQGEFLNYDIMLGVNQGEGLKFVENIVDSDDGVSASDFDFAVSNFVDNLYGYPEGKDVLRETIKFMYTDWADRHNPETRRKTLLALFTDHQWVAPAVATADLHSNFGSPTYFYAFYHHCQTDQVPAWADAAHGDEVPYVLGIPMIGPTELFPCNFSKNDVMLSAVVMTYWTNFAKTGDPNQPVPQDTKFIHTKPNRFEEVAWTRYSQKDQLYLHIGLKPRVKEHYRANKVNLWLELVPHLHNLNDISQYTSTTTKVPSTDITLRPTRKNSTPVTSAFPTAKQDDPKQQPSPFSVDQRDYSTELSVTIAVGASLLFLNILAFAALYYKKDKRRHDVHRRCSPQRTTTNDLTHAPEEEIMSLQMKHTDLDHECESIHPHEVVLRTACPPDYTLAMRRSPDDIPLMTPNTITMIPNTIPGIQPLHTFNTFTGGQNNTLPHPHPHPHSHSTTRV

These are yes or no findings as the source states them, for the method shown. In cells and extracts the contact can be indirect. Some results given as binding are weak or reduced against the parent protein; the word gives no strength.

For experiment [1], the target named is HA-tagged neuroligin 1, NL1-AB (UniProt Q99K10). Briefly: co-IP; lysates of HEK293 cells transfected singly with HA-NL1-AB, myc-Kal-7 or FLAG-DISC1 were mixed as indicated (with or without the third lysate), then immunoprecipitated; immunoblot. On the technique in general: In western blotting, separated proteins are transferred to a membrane and probed.
For experiment [2] the target is unchanged. Briefly: co-IP; lysates of HEK293/293T cells transfected singly with HA-NL1-AB or myc-Kal-7 were mixed, then immunoprecipitated with anti-HA, anti-myc or anti-Kal antibody; IP buffer PBS, 1% NP40; protein A/G magnetic beads; immunoblot.

In the case of “myc-tagged kalirin-7 (pEAK10-His-Myc-Kal7) (from UniProt P97924-6 1-1654)”, the binding entry in experiment [1] and in experiment [2] was “binds” throughout.
